Measurements reported in PubChem BioAssay AID1508597 (Cure First, 2020).
This is an unselected part of the about 2,100 reagents, in one setting of the screen. 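Calls flag viability under 80% in either arm, not effects specific to rucaparib; the reference for percent is not stated.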 Reagents against one gene are numbered here. The record does not give: the 100% reference.

- Screen: 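Genes whose silencing sensitises or protects ovarian cancer cells against rucaparib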 (primary screen)
- Cells: human ovarian carcinoma lines grown from tumours: OCI-P5x (papillary serous) and OCI-C5x (clear cell)
- Reagent: siRNA pool against human genes, 1.25 pmol siRNA per well
- Duration: 72 h or 96 h, depending on the cell culture
- Treatment: rucaparib 20 µM (about IC30) or vehicle, present until read-out
- Rucaparib or vehicle: Vehicle
- Cell line: OCI-P5x (serous)
- Measurement: 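Luminescent ATP-based viability assay read 72 or 96 h after transfection, depending on culture, given as normalised percent viability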
- Reading the numbers: viability, normalised: higher = more viable cells remaining
- Rule for the call: 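Active when normalised viability falls below 80 percent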
- Calls: active = viability under 80%; inactive = viability 80% or more

| Gene | pool no. | technical replicate | viability, normalised (%) | call |
| --- | --- | --- | --- | --- |
| CABIN1 | 1 | 1 | 60.3 | active |
| CABIN1 | 1 | 2 | 81.1 | inactive |
| CABIN1 | 1 | 3 | 47.7 | active |
| ERCC4 | 1 | 1 | 69.8 | active |
| ERCC4 | 1 | 2 | 74.5 | active |
| ERCC4 | 1 | 3 | 69.5 | active |
| RARA | 1 | 1 | 57.5 | active |
| RARA | 1 | 2 | 72 | active |
| RARA | 1 | 3 | 82.6 | inactive |
| MPG | 1 | 1 | 101 | inactive |
| MPG | 1 | 2 | 67.5 | active |
| MPG | 1 | 3 | 89.6 | inactive |
| RLIM | 1 | 1 | 71.9 | active |
| RLIM | 1 | 2 | 91.4 | inactive |
| RLIM | 1 | 3 | 163 | inactive |

A few values from above:
Result of RLIM, technical replicate 1 under “call”: active
For “call”, MPG, technical replicate 1 reads inactive

The results go on:
| Gene | pool no. | technical replicate | viability, normalised (%) | call |
| --- | --- | --- | --- | --- |
| MAPK12 | 1 | 1 | 89.6 | inactive |
| MAPK12 | 1 | 2 | 75.7 | active |
| MAPK12 | 1 | 3 | 86.7 | inactive |
| PTTG3P | 1 | 1 | 62.1 | active |
| PTTG3P | 1 | 2 | 68.1 | active |
| PTTG3P | 1 | 3 | 154 | inactive |
| PRPS1L1 | 1 | 1 | 75.6 | active |
| PRPS1L1 | 1 | 2 | 86.7 | inactive |
| PRPS1L1 | 1 | 3 | 79.4 | active |
| RAD51D | 1 | 1 | 31.3 | active |
| RAD51D | 1 | 2 | 66.1 | active |
| RAD51D | 1 | 3 | 74.2 | active |
| RAD51D | 2 | 1 | 44.3 | active |
| RAD51D | 2 | 2 | 65.5 | active |
| RAD51D | 2 | 3 | 56.3 | active |
| FANCF | 1 | 1 | 70.4 | active |
| FANCF | 1 | 2 | 65.5 | active |
| FANCF | 1 | 3 | 52.4 | active |
| PRKX | 1 | 1 | 89.2 | inactive |
| PRKX | 1 | 2 | 79 | active |
| PRKX | 1 | 3 | 84.8 | inactive |
| IGF2R | 1 | 1 | 35.9 | active |
| IGF2R | 1 | 2 | 38.4 | active |
| IGF2R | 1 | 3 | 51.2 | active |
